According to PMC10584835:
These are yes or no findings as the source states them, for the method shown. In cells and extracts the contact can be indirect. Binding can be weak; no strength is given.

Chains of the proteins cited; added tags and fusions are not shown. Lines headed by an entry give the natural chain unless they say otherwise; changes in a name come on top.
UniProt Q96EP1: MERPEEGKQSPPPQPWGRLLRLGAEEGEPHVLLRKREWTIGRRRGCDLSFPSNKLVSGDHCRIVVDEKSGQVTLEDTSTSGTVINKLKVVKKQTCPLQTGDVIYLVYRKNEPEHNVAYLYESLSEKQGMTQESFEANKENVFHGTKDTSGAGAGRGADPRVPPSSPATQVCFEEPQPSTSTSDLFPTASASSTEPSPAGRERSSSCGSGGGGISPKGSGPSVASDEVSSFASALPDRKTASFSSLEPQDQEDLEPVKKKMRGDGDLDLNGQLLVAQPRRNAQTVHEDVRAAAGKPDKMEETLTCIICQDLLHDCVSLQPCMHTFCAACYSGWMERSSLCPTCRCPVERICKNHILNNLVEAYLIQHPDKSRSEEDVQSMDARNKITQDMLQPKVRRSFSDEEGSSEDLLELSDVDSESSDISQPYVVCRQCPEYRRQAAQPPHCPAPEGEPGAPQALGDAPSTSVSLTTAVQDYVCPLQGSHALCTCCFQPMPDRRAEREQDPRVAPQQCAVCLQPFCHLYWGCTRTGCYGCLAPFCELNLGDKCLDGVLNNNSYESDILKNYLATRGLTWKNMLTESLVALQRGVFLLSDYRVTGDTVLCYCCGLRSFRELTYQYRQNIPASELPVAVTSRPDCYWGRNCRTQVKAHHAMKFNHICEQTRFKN

Key:
[1] = target: N-terminal eGFP fused human CHFR mutant lacking poly-ADP ribose binding zinc-finger domain (human) (UniProt Q96EP1); test: co-IP; anti-GFP agarose beads (GFP-Trap) pull-down from lysates of HMEC transfected with eGFP-CHFR constructs, 48 h after transfection; 150 ug lysate protein, 2 h at 4 C; immunoblot for endogenous VE-cadherin; ratio of VE-cadherin to GFP-CHFR quantified
[2] = target: N-terminal eGFP fused human CHFR mutant lacking cysteine-rich domain (human) (UniProt Q96EP1); test: as above

- binding [1]: binds
- binding [2]: binds
B1: VE-cadherin, endogenous in HMEC (protein, UniProt P33151 48-784)
chain: DWIWNQMHIDEEKNTSLPHHVGKIKSSVSRKNAKYLLKGEYVGKVFRVDAETGDVFAIERLDRENISEYHLTAVIVDKDTGENLETPSSFTIKVHDVNDNWPVFTHRLFNASVPESSAVGTSVISVTAVDADDPTVGDHASVMYQILKGKEYFAIDNSGRIITITKSLDREKQARYEIVVEARDAQGLRGDSGTATVLVTLQDINDNFPFFTQTKYTFVVPEDTRVGTSVGSLFVEDPDEPQNRMTKYSILRGDYQDAFTIETNPAHNEGIIKPMKPLDYEYIQQYSFIVEATDPTIDLRYMSPPAGNRAQVIINITDVDEPPIFQQPFYHFQLKENQKKPLIGTVLAMDPDAARHSIGYSIRRTSDKGQFFRVTKKGDIYNEKELDREVYPWYNLTVEAKELDSTGTPTGKESIVQVHIEVLDENDNAPEFAKPYQPKVCENAVHGQLVLQISAIDKDITPRNVKFKFILNTENNFTLTDNHDNTANITVKYGQFDREHTKVHFLPVVISDNGMPSRTGTSTLTVAVCKCNEQGEFTFCEDMAAQVGVSIQAVVAILLCILTITVITLLIFLRRRLRKQARAHGKSVPEIHEQLVTYDEEGGGEMDTTSYDVSVLNSVRRGGAKPPRPALDARPSLYAQVQKPPRHAPGAHGGPGEMAAMIEVKKDEADHDGDGPPYDTLHIYGYEGSESIAESLSSLGTDSSDSDVDYDFLNDWGPRFKMLAELYGSDPREELLY
